Results are given in words; binding and its absence hold for the method and conditions named. Binding seen in cells or lysates may run through a third protein. A yes stands for co-enrichment or nearness to the bait. Other partners may have been found. Tags and fused reporters may be left off the sequences shown.
target: T1, FLAG-HA-Rbm10 (S. pombe) (UniProt P87143); test: affinity purification with mass spectrometry; two-step purification (anti-FLAG beads, 3xFLAG peptide elution, then uMACS HA magnetic beads) of overexpressed FLAG-HA-Rbm10 from S. pombe lysate with Benzonase; three independent purifications; control purification from an untagged strain
T1 sequence: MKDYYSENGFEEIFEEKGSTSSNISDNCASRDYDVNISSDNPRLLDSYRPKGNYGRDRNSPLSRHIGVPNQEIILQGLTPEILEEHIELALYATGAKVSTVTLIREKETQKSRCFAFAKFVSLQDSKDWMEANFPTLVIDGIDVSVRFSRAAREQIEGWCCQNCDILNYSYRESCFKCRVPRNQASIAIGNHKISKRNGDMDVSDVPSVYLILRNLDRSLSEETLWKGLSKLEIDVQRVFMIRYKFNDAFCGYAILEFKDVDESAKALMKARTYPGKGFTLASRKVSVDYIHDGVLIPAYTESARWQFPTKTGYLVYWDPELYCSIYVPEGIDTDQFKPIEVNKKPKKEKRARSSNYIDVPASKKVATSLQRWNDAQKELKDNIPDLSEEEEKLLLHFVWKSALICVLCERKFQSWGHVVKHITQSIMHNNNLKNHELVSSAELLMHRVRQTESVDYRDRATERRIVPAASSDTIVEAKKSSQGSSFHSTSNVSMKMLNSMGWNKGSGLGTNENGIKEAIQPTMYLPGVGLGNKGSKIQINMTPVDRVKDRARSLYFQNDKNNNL

Binder	binding
Prp10 (protein, UniProt Q10178 1-1205) MSTGTYPYKMFKMDVTNLNKVEDVEIERLRAERELLRRQKEAAKNSSTNGSVNIEGTQDSNDLQYNAHLFKSSNPKEEYDSAIDVRNDISQDEDDYKRTNDVNDSYRLVRQYEAPKELLNEYADESYDPMQERQSKKQIQDRESDYQKQRYDRQLTPTRVDAFQPDGTQSNGRSYAEVMRQVELEKEERRVHMELNQRRREGTLKEVEEEESISDKKRELELNNTEISQKPKRSRWDQAPPSVTQVSTTKRRSRWDKAPENFTISEHVIENGISEDLINKEVNVVEEKLRPPVRLLTEEELNELLPSEGYAILEPPPGYLESIHPELLQKGTTLDTYHVPQEQELPLEKELPAALPTEIPGVGDLAFFKQEDVKYFGKLLKVEDEAKLTIAELRERKILRLLLKVKNGTPPMRKSALRQLTDQARDFGAAALFNQILPLLMERTLEDQERHLLVKVIDRILYKLDDLVRPFTHKILVVIEPLLIDEDYYARAEGREIISNLAKASGLAHMIATMRPDIDHVDEYVRNTTARAFSVVASALGVPALLPFLKAVCRSKKSWQARHTGVRIIQQIALLLGCSILPHLKNLVDCIGHGLEDEQQKVRIMTALSLSALAEAATPYGIEAFDSVLKPLWSGVQRHRGKSLAAFLKATGFIIPLMEPEYASHFTRRIMKILLREFNSPDEEMKKIVLKVVSQCASTDGVTPEYLRTDVLPEFFHCFWSRRMASDRRSYKQVVETTVVLAQQVGSRQIVERVVNNFKDESEPYRKMTAETVDKVIGSLGVSEIDERLEELLLDGVLFAFQEQSVEEKVILTCFSTVVNALGTRCKPYLPQIVSTILYRLNNKSANVREQAADLVSSITIVLKACGEEALMRKLGVVLYEYLGEEYPEVLGSILGAIKAIVSVVGMSSMQPPIRDLLPRLTPILRNRHEKVQENTIDLVGKIADRGSEYVSAREWMRICFELIDMLKAHKKSIRRAAVNTFGYISKAIGPQDVLATLLNNLKVQERQNRVCTTVAIAIVAETCMPFTVVPALMADYRTPEMNVQNGVLKSLAFMFEYIGEQARDYVYAITPLLADALMDRDAVHRQTAASVIKHLSLGCVGLGVEDAMIHLLNILWPNILEESPHVINAVREGIDGIRNCIGVGPIMAYLVQGLFHPSRKVRNTYWTSYNSAYVQSADAMVPYYPHVDDDQFNNYDMKTLHICI	binds
Prp11 (protein, UniProt Q9P7C7 1-1014) MSRRTRSRSPPRRSYNRERRDYRKYDDSEDQKGARYNRYVDDVSSRRDRHDSFRSHESNKIRRDNSWKHDKYSYEKRYQERDREYARSKNIPDQYIGRSPRPTSHRHAEEKEVDNKTKSDETNPVLQGSATEIKPQPRRSRFDRTERVGASLSVSEIQSENPRVDVIPKDKAVENNHQRNAEKPVASDKITDAKLLARLERVRAWKESKAKQEASKKEEHKLNTKPQVTAKDQNAMPSTGISGFEINRQKDTSDMKRNNRVHMDDEDGPRRMNLEDYQELWDQEDRGMLGNEQAASMEEDEVDPLDAYMASLVGTTDTIRPGLLNTEVIDPNANDDERMVISETLEEEENLLALAAKRSKKKDVITVDHSKINYEDFKKDFYVEPEELKNLSPAEVDELRASLDGIKIRGIDCPKPVTSWSQCGLSAQTISVINSLGYEKPTSIQAQAIPAITSGRDVIGVAKTGSGKTIAFLLPMFRHIKDQRPLKTGEGPIAIIMTPTRELAVQIFRECKPFLKLLNIRACCAYGGAPIKDQIADLKRGAEIVVCTPGRMIDVLSANAGRVTNLHRCTYLVLDEADRMFDLGFEPQVMRIINNIRPDRQTVLFSATFPRAMEALARKVLKKPVEITVGGRSVVASEVEQIVEVRPEESKFSRLLELLGELYNNQLDVRTLVFVDRQESADALLSDLMKRGYTSNSIHGGKDQHDRDSTISDYKAGVFDVLIATSVVARGLDVKSLQLVVNYDCPNHMEDYVHRVGRTGRAGHTGVAVTFITPEQEKYAVDIAKALKMSKQPVPKELQTLASQFLEKVKAGKEKAAGGGFGGKGLSRLDETRNAERKMQRKAYGEDEEDVETEAEAKSPLEKITPEKSTGDPTLDRVRAAVGGIAARAFANQTAQSNKLTQPISIIKTDGDEYKAKMEINDYPQQARWAVTNNTNIVHVTELTGTSITTKGNFYLPGKNPEPGEEKLYLWIEGPSELVVNRAITELRRLLLEGINHSLEGGNKPSASGRYTVV	binds
Prp12 (protein, UniProt Q9UTT2 1-1206) MDTFPSLFLYSLTIQNSNYVQSSCAASLSGKKAQEIVIATESRLLIYKVDATDGRMNCILNQNCFGIIRNVAPLRLTGFKRDYLVVTSDSGRITILEYNVEKNKLVPIYQETFGKSGIRRVVPGEYLAIDAKGRAAMIASVEKNKLVYVLNRDSEANLTISSPLEAHKANNICFHLIGLDTGYANPIFAALEVDYSEIDHDSTREAFTSSEKVLSYYELDLGLNHVVKRWSKVVDRNSYMLIPVPGGNDGPSGTLVISNGWISYRHLQKAFHQIPILRRQAASANAISTPWNQVNSNSANDGPLIVSAVLHKMKGSFFYLLQTGDGDLLKLTIEHDGQGNVVELRLKYFDTVPLAVQLNILKTGFLFVATEFGNHQLYQFENLGIDDDELEITSLDFQAQDNEVGTKNVHFGVRGLQNLSLVEEIPSLYSLTDTLLMKAPSSGEANQLYTVCGRGSNSSLRQLRRGLETTEIVASELPGAPIAIWTLKLNQTDVYDSYIILSFTNGTLVLSIGETVEEISDSGFLSSVSTLNARQMGRDSLVQIHPKGIRYIRANKQTSEWKLPQDVYVVQSAINDMQIVVALSNGELVYFEMSDDVEGGQLNEYQERKTLTANVTSLALGPVQEGSRRSNFMCLACDDATVRVLSLDLYTTLENLSVQALSSPANSLCIIPMNVNGVSTLYLHIGLMNGVYLRTVIDVTSGQLLDTRTRFLGPRAVKIYPITMKNQNTVLAVSSRTFLAYSYQQNLQLSPIAYSAIDHASSFASEQCPEGIVAIQKNTLKIFTVDSLQDDLKSDIYPLICTPRKIVKHPNFPVLYILQSERNFDSFKYAQENGDVGSSYTKEKQNEHTSKSWVSFISVFDMISKKIIHESPLGDNEAAFSMTAAFFKNRDEFFLVAGSATNMDLECRTCSHGNFRVYRFHDEGKKLELISHTEIDGIPMALTPFQGRMLAGVGRFLRIYDLGNKKMLRKGELSAVPLFITHITVQASRIVVADSQYSVRFVVYKPEDNHLLTFADDTIHRWTTTNVLVDYDTLAGGDKFGNIWLLRCPEHVSKLADEENSESKLIHEKPFLNSTPHKLDLMAHFFTNDIPTSLQKVQLVEGAREVLLWTGLLGTVGVFTPFINQEDVRFFQQLEFLLRKECPPLAGRDHLAYRSYYAPVKCVIDGDLCEMYYSLPHPVQEMIANELDRTIAEVSKKIEDFRVRSF	binds
Prp19 (protein, UniProt O14011 1-488) MFCSISGETPKEPVISRVSGNVYEKRLIEQVIRETSKDPVTQQECTLEDLVPVKVPDFVRPRPPSATSLPALLSLFQEEWDSVALEQFELRRNLTETKQELSTALYSLDAALRVISRLTKERDEAREALAKFSDNIGTVSSKTIEVQEVEMGESDDQLKTSLRSTVEKTFQELSSKRKRTKLQPKWATDDAVSQLLQATPSTILENLETESTTSFFPSPENSSFVLCLHKDELLCLDIQSNSTLKIFEGSALACCWLTSSKIAVATADAISIFEFPVSSSGLQSVGEPTSSIPIDEKVNFLQAHPSGEYLLAASNEKCYIFSLKSQVYNITVAQHITSLAVHPDGNLFVAGLENGELRFFETSSGNELTKFGPHSSPVKTLQFGENGYWLVVTTNDDSDIFIWDLRKSELVQKIPLQTKVAAVSLDITSQLLVSSDGETLYVHIYVKSSKSWRCMSQTHVSSISNLVWLNELHQLLFSTSNGAILRLG	binds
Prp24 (protein, UniProt Q9USY2 1-1014) MSQIQDLKDENVEMDIDPQEQNEKKPLLLDELTKFTILHPYNYDSHIKLIEELKRLDKKKELSEARKTFQSIFPLSEDLWVDYLLDECKNCRTLDDYVRIKTLFDLAVQDYLSIKIWCMYLEFTLNLMDTSSFEQEQSELNGVITLTDAHSLFERAYQTCKFHFSKSQCVWTLYLEFLQTFGDALFEGEEEQEIVFKNKIYDFHIDRLKLPHEQIEETFTSLSTFVTNNWSPSEYEDVMVKSNKVYETTLKRNAKIFNKELLLNSANHSLEAYMDLINDESRRSTAELQYITTLYERAIVLYPLIPELWLQYTAWLSKVDFSSSQASSVAERATRNCSWIGRIWSIKLTYMTLSGASTSAVCEEKDRCLNSNLLVNFDEVIDFFSGFLKACLYLSSNEDKPQEFLKHQIHKVEDYLRKNHKGSKDARMRIELSKIYLYSEISDFESVEKCWSDMFHDFQNQALYWISRYISTMKYNPELAAETLKKSLYKNVDQPQLLFQFYQSIMDLNNDCFTNTSHLYDVLNAQRISFKRQLDSFAEETKQTVENTEPLKVPQADDTAALSKKRKPGQEGDVFKKSKPIEQHRNREELTVLVTNLPSDISENELKIFFKDCGNIIRIFILEDNQKDVKVAQIEFSETSEVLAAKTRDLKSIRGHEISVQIHVDTNLYVTNFPPTYDELDITKLFSAYGNVVDVRFPSLRYNTNRRFCYVQMRKPDEAHNALQLHKKLLEEKYPIQVFISDPLRRTPRSGAVYEGRELYVTNIDFKVNEKDVETFFRDYGQVESVRIPKRFNQHKGFGYVVMTTNQDAENALSAAGKQLGNRVLNVVLSKPRESLEKTRVSSNDNRTLAKSFETTESNKMSTPKKSFEQIKSKSLGVTNVDGTVNEARLRSLFESYGKLYRVVLHPEHEGAVVEFLDIHDAGKASLALEGHEIGGRLLHITTVNEMMHNVPSSMNHSDYNTSATRPRRLGSRTFQGFNSNHSNINSKKDDLDDKEMQIDAPKSNDDFRKMFLK	binds
Prp31 (protein, UniProt O42904 1-518) MSLADELLADLDDIEETTESTITDELGPDAKKRRLELQLEEGNGISAELENDLDITKISDSAQKLPSEVANKFNDNNENIYQLLNSTRLRDIIEGTEKYKGTEKQAITGNIEDDLEYHLIVDSNSIAMEIDDEILRLHRLVKEWYHDRFPELSSLVLNAFDYCKTVSSLLNDLDNSKTKLSFLPSATVMVIATTATTTVGKPLPDEMIKNVKNCCEAIQQLGEEKQKIIEYVQSRISVVAPNLSAVVGSTTAANLIGIAGGLTRLGKFPACNLPALGKRRLTTIGINNPAVSGDYGFLYMSEIVQKTPPDVRKQAIRMTAAKVALAARIDSIHEYPDGSFGISARKEVERKIEKLLEPPSQKPTVALPVPDDRPKRRRGGRRIRKMKEQYAVTELRRLQNRVAFGKEEAEVFNFDETEGLGMLGQEGEGKIRAVSIDSRTKLRLPKARKAQLQSMAQKNPLAASGLQSSLSFTPIQGIELVNPLLQRQQKVEEANKWFRDGVFTQIKKDSNEPKNKFS	binds
